This is an account of results in PMC11112123.

Amino acid sequences for entries named in this document (tags omitted).
UniProt Q96EX3: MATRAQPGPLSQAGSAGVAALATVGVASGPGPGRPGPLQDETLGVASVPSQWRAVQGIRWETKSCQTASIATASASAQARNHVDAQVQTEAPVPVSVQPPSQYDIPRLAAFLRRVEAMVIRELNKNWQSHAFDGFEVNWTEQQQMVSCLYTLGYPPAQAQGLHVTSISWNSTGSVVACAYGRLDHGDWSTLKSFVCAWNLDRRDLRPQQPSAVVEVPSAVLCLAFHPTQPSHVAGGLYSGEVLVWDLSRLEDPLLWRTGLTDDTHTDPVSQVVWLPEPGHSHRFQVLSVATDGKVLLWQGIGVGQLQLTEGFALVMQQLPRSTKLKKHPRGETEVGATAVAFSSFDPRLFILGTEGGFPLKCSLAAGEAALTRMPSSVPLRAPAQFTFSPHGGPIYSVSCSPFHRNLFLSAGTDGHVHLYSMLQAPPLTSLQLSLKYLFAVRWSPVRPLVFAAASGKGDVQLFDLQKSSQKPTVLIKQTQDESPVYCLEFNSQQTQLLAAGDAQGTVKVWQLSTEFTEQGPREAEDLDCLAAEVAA
UniProt Q9Y4F5: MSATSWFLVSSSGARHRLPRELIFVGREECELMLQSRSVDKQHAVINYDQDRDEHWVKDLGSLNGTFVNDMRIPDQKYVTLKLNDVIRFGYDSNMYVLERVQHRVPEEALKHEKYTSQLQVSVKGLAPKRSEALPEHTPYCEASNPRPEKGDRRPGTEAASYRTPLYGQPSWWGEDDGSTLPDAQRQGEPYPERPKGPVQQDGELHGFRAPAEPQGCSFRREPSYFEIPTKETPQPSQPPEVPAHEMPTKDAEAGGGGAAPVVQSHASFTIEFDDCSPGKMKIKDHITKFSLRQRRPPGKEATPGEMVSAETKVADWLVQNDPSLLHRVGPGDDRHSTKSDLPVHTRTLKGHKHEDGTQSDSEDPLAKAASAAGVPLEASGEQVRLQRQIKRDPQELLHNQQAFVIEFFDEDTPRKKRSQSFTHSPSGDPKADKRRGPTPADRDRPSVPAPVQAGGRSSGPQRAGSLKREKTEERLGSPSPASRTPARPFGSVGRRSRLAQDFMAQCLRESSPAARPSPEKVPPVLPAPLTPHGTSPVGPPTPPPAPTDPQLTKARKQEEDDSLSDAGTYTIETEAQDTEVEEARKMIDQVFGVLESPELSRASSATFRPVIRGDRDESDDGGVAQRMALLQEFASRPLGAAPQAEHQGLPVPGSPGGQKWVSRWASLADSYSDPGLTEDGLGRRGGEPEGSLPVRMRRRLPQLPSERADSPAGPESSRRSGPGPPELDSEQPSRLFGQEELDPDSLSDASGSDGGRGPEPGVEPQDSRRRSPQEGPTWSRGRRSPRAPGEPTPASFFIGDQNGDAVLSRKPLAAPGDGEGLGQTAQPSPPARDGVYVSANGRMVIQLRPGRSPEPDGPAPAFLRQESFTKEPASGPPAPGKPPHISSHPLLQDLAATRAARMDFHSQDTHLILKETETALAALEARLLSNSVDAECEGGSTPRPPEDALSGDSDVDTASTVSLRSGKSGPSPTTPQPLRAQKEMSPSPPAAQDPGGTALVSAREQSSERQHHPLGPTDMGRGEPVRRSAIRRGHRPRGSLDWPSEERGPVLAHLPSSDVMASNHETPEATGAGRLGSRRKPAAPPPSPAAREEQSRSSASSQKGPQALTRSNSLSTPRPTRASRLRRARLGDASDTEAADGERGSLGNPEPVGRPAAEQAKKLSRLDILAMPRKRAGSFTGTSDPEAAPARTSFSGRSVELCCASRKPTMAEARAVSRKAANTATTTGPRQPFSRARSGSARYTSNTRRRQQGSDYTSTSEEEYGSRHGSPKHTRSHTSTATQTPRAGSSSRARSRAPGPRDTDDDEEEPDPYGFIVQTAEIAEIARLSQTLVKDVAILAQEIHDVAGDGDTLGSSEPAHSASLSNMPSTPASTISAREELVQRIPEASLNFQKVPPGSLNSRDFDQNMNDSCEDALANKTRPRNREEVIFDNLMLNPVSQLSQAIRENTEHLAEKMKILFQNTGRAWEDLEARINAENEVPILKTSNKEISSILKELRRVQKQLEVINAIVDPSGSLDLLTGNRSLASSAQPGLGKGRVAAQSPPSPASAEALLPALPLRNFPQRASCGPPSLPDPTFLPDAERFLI

Results are given in words; binding and its absence hold for the method and conditions named. In cells and extracts the contact can be indirect.

This test concerns the target HA–WDR34 (human) (UniProt Q96EX3). Briefly: co-IP; anti-HA immunoprecipitation from RPE1 cells (WT and WDR60 KO) expressing HA–WDR34, immunoblot; as described in Vuolo et al., 2018.

Consider CEP170B (from UniProt Q9Y4F5 1-1589), for which the binding entry is on record as “no binding”.
